No constants are given. Whether binding was seen depends on the method and setting. Binding seen in cells or lysates may run through a third protein. Some binding calls cover weakened binding; strength is not graded here. Sequences can lack the tags named with a protein.
T1: Flag-IFT81 (UniProt Q8WYA0)
T1 sequence: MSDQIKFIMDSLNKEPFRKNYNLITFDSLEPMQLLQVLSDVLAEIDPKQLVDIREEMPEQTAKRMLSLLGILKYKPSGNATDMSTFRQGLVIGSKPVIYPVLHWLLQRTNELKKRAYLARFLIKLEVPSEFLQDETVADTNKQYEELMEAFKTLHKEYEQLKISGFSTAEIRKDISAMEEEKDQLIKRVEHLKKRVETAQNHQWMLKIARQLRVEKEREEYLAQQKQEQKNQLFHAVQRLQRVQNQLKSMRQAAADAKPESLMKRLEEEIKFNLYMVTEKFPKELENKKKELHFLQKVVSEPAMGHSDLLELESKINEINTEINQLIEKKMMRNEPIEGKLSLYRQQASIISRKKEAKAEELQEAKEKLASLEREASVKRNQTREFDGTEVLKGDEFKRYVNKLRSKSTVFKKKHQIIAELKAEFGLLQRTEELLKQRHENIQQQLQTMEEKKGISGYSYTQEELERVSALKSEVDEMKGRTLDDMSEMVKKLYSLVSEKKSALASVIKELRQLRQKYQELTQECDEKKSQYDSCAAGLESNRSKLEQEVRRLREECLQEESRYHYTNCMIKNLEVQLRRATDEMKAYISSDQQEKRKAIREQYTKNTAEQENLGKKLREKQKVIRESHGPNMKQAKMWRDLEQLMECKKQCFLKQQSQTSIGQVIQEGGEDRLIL

T2: 3xHA-tagged human IFT52 (human) (UniProt Q9Y366)
T2 sequence: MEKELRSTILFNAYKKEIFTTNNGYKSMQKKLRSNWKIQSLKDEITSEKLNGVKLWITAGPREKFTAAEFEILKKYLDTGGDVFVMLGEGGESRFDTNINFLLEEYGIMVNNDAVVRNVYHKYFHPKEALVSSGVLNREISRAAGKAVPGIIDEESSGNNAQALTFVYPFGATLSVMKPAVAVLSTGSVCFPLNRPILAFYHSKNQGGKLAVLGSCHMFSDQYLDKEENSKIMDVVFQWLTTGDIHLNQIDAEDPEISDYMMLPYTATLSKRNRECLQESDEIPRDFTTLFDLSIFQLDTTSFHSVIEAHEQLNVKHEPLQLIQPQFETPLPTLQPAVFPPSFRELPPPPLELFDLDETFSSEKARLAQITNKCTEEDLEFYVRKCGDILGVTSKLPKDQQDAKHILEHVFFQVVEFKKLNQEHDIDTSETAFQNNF

T3: 3xHA-tagged human IFT46 (human) (UniProt Q9NQC8)
T3 sequence: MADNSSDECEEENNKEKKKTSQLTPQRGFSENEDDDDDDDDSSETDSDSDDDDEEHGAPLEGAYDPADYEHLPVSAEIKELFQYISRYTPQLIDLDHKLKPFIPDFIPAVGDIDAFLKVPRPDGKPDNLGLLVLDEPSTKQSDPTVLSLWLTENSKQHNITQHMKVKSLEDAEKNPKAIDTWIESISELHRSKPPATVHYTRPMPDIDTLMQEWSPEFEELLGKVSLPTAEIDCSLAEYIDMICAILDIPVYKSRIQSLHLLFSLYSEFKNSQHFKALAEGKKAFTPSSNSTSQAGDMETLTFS

T4: 3xHA-tagged human IFT46 (human), Q9NQC8
T4 chain: T3 sequence

B1: 3xHA-IFT74 (wildtype) (protein, UniProt Q96LB3-1 1-600)
chain: MASNHKSSAARPVSRGGVGLTGRPPSGIRPLSGNIRVATAMPPGTARPGSRGCPIGTGGVLSSQIKVAHRPVTQQGLTGMKTGTKGPQRQILDKSYYLGLLRSKISELTTEVNKLQKGIEMYNQENSVYLSYEKRAETLAVEIKELQGQLADYNMLVDKLNTNTEMEEVMNDYNMLKAQNDRETQSLDVIFTERQAKEKQIRSVEEEIEQEKQATDDIIKNMSFENQVKYLEMKTTNEKLLQELDTLQQQLDSQNMKKESLEAEIAHSQVKQEAVLLHEKLYELESHRDQMIAEDKSIGSPMEEREKLLKQIKDDNQEIASMERQLTDTKEKINQFIEEIRQLDMDLEEHQGEMNQKYKELKKREEHMDTFIETFEETKNQELKRKAQIEANIVALLEHCSRNINRIEQISSITNQELKMMQDDLNFKSTEVQKSQSTAQNLTSDIQRLQLDLQKMELLESKMTEEQHSLKSKIKQMTTDLEIYNDLPALKSSGEEKIKKLHQERMILSTHRNAFKKIMEKQNIEYEALKTQLQENETHSQLTNLERKWQHLEQNNFAMKEFIATKSQESDYQPIKKNVTKQIAEYNKTIVDALHSTSGN
B2: 3xHA-IFT74 lacking exon 2 (domain or fragment, UniProt Q96LB3-1 41-600)
chain: MPPGTARPGSRGCPIGTGGVLSSQIKVAHRPVTQQGLTGMKTGTKGPQRQILDKSYYLGLLRSKISELTTEVNKLQKGIEMYNQENSVYLSYEKRAETLAVEIKELQGQLADYNMLVDKLNTNTEMEEVMNDYNMLKAQNDRETQSLDVIFTERQAKEKQIRSVEEEIEQEKQATDDIIKNMSFENQVKYLEMKTTNEKLLQELDTLQQQLDSQNMKKESLEAEIAHSQVKQEAVLLHEKLYELESHRDQMIAEDKSIGSPMEEREKLLKQIKDDNQEIASMERQLTDTKEKINQFIEEIRQLDMDLEEHQGEMNQKYKELKKREEHMDTFIETFEETKNQELKRKAQIEANIVALLEHCSRNINRIEQISSITNQELKMMQDDLNFKSTEVQKSQSTAQNLTSDIQRLQLDLQKMELLESKMTEEQHSLKSKIKQMTTDLEIYNDLPALKSSGEEKIKKLHQERMILSTHRNAFKKIMEKQNIEYEALKTQLQENETHSQLTNLERKWQHLEQNNFAMKEFIATKSQESDYQPIKKNVTKQIAEYNKTIVDALHSTSGN
B3: Flag-tagged IFT74 (protein, UniProt Q96LB3-1 1-600)
chain: B1 chain
B4: Flag-tagged IFT74Δexon2, Q96LB3-1 41-600 (domain or fragment)
chain: B2 chain
B5: Flag-tagged IFT74Δexon2 (domain or fragment, UniProt Q96LB3-1 41-600)
chain: B2 chain

Experiments:
Flag-IFT81 = molecular target: T1, Flag-IFT81; test: co-IP; 3xHA-IFT74 or 3xHA-IFT74 lacking exon 2 co-expressed with Flag-IFT81; precipitated with anti-Flag antibody, blot stained with anti-HA antibody
[1] = molecular target: T2, 3xHA-tagged human IFT52 (human); test: co-IP; 3xHA-tagged human CBY, IFT46 or IFT52 co-expressed in HEK293T cells with Flag-tagged IFT74 or IFT74Δexon2; extracts precipitated with HA beads, eluates probed for Flag
[2] = molecular target: T3, 3xHA-tagged human IFT46 (human); test: as above
[3] = molecular target: T4, 3xHA-tagged human IFT46 (human), Q9NQC8; test: as above; settings: remark: other sources report otherwise

Row | Binder | binding (Flag-IFT81) | binding [1] | further results
1 | B1 | binds | – | –
2 | B2 | binds | – | –
3 | B3 | – | binds | binding [2]: binds
4 | B4 | – | – | binding [3]: binds
5 | B5 | – | binds | –
